Measurements from EP4714468A1, “METHOD FOR ADMINISTERING MODULATOR TARGETING S1PR1 AND S1PR4” (priority 2023, dated 2024).

Tests used:
[1] = system: absolute lymphocyte count (ALC); test: Phase 1 clinical trial, single administration: pharmacodynamics by hematological test; assay type: in vivo, healthy adult males
Experimental: (§1) A randomized, double-blind, placebo-controlled, step-escalation, single- and multiple-dose phase 1 clinical trial was conducted to evaluate the safety, tolerability, and pharmacokinetic/pharmacodynamic characteristics of a compound of Chemical Formula 1 (NXC736) after oral administration to healthy adult males.
The subjects were administered a single oral dose of the clinical trial drug on an empty stomach at around 9:00 AM on the day of administration after fasting for at least 10 hours. In the single-administration trial, the subjects were administered the drug and hospitalized for 8 days. After discharge, they were observed through outpatient visits until day 21. Blood was collected once before administration and at regular intervals after administration, and hematological tests were performed.

[2] = system: absolute lymphocyte count (ALC); test: Phase 1 clinical trial, repeated administration: pharmacodynamics by hematological test; assay type: in vivo, healthy adult males
Experimental: as §1
The subjects fasted for at least 10 hours before the first administration. Afterwards, the clinical trial drug was administered orally twice a day for 13 days and once on day 14 in a fasting state at around 9:00 AM and 9:00 PM. The administration was performed twice a day for approximately 14 days, and the subjects were discharged on day 21 from the first administration and observed through outpatient visits until day 36. Blood was collected once before administration and at regular intervals after administration, and hematological tests were performed.

In the case of `CCCCCCCCCCn1cc(CCC(N)(CO)CO)nn1` [NXC736], the “ALC recovery to the pre-administration level” value ([1]; after single administration) is reported as “within the same day”, the “time at which ALC decreased to the maximum” value ([1]; after single administration) is reported as “about 6 hours” and the “time of ALC recovery to the pre-administration level” value ([1]; after single administration) is reported as at most 1 days. For the same molecule, the “time over which ALC steadily decreased after administration” value ([1]; single administration) was “up to 6 hours”, the “time over which ALC steadily decreased after administration” value ([2]; repeated administration) was “up to 6 hours” and the “time for the decrease in ALC to reach the maximum” value ([2]; repeated administrations) was at most 14 days. The “time of ALC recovery to the pre-administration level after discontinuation of administration” value ([2]; repeated administrations) was at most 24 h.
